The list shows a part of the results.
Legend:
Experiment in all cases: log2 fold change, soluble protein after heating vs DMSO (PISA); higher = thermal stabilisation; K562 lysate, 10 uM; active = over 0.2 and 3.5 SD of the protein, either way, in both replicates (recomputed)
[1] = compound: Cc1cn(-c2cc(NC(=O)c3ccc(C)c(Nc4nccc(-c5cccnc5)n4)c3)cc(C(F)(F)F)c2)cn1 [nilotinib]
How it was run: (§1)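 The values are log-two fold changes in thermal stability compared with solvent controls and come from duplicates. They were obtained by TMTpro 16plex LC-MS/MS, with channel sums equalised, on the supernatant after 21,000xg for 90 min. That supernatant came from crude K562 extract at 1 mg/mL protein treated with 10 μM compound for 30 min, heated for 3 min across 48°C-58°C, pooled and brought to 0.5% NP-40 at 4°C.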

The chains behind the UniProt entries cited, without tags or fusion partners. Where a name states a change or a piece, a line headed by the entry shows the natural chain unless it says otherwise.
UniProt P26196: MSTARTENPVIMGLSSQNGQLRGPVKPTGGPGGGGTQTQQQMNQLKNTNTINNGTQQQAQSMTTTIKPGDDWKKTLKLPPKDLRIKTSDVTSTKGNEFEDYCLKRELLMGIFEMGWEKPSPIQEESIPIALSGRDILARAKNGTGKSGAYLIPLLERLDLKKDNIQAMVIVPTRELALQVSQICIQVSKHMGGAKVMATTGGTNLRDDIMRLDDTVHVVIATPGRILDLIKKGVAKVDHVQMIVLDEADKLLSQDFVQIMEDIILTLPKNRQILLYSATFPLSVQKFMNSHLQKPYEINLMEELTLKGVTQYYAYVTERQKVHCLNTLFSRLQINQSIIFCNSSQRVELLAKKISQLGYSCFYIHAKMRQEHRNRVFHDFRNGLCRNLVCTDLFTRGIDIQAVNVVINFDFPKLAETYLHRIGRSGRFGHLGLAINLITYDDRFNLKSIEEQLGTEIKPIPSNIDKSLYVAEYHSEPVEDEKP
UniProt Q9NR30: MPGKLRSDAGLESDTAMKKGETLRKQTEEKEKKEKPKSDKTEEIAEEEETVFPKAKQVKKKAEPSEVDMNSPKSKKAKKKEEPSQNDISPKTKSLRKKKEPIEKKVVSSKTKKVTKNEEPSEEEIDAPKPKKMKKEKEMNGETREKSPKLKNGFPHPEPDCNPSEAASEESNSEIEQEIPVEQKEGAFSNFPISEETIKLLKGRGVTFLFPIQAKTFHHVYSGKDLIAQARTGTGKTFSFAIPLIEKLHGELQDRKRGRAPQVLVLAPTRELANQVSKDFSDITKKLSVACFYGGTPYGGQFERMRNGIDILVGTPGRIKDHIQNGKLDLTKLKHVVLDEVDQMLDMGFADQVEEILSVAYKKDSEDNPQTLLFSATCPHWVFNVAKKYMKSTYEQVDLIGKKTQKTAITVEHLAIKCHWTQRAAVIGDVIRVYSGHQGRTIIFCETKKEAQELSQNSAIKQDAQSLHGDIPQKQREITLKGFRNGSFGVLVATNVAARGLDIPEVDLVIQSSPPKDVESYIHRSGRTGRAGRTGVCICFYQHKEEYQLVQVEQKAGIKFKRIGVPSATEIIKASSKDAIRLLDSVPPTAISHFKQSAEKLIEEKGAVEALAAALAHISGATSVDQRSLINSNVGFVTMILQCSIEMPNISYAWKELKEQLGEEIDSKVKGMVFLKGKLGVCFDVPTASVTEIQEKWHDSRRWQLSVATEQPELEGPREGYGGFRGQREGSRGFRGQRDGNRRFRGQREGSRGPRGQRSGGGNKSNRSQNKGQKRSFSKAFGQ
UniProt Q9UK59: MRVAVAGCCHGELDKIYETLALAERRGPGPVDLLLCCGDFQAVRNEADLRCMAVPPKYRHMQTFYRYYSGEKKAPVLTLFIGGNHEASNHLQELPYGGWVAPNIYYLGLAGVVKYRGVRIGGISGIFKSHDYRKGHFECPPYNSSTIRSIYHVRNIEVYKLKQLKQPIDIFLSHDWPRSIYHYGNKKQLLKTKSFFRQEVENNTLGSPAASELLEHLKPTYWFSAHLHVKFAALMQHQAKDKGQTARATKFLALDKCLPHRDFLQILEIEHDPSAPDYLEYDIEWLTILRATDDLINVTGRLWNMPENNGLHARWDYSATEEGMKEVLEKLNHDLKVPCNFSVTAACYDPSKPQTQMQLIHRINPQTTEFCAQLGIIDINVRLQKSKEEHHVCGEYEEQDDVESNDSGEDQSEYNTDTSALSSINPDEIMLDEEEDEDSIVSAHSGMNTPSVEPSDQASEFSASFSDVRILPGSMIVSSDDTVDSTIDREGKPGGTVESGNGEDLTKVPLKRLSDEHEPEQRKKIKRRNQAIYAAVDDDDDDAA
UniProt Q13838, whole entry, looked up: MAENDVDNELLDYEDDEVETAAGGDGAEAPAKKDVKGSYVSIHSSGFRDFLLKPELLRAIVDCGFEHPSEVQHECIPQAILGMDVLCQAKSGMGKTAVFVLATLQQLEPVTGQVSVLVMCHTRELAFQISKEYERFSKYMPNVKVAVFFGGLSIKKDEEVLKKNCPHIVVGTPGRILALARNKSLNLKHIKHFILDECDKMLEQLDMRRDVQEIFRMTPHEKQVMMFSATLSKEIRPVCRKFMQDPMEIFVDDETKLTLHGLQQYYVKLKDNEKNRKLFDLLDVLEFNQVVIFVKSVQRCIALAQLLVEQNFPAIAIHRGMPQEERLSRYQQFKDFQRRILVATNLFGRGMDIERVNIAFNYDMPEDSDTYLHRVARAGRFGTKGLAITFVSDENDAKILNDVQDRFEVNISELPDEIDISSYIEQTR
UniProt P39656: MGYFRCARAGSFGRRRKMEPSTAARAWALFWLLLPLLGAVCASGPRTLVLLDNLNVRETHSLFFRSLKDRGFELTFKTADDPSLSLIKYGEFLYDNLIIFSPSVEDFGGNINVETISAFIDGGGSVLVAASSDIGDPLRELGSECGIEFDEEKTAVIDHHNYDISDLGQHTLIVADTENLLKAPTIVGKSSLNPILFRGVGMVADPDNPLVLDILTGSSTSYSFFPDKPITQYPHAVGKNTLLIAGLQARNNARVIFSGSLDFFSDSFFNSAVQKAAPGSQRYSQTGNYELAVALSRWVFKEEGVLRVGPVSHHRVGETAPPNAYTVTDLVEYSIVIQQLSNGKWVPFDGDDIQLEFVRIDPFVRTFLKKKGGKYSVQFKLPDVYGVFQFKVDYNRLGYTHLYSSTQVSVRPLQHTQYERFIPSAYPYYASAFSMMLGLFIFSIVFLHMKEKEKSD
UniProt Q9BTE1, whole entry, looked up: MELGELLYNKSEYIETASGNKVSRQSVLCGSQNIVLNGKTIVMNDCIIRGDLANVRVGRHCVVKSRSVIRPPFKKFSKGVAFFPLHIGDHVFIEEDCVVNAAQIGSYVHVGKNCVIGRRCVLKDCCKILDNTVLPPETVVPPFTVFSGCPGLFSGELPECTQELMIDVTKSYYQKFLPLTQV
UniProt Q99418: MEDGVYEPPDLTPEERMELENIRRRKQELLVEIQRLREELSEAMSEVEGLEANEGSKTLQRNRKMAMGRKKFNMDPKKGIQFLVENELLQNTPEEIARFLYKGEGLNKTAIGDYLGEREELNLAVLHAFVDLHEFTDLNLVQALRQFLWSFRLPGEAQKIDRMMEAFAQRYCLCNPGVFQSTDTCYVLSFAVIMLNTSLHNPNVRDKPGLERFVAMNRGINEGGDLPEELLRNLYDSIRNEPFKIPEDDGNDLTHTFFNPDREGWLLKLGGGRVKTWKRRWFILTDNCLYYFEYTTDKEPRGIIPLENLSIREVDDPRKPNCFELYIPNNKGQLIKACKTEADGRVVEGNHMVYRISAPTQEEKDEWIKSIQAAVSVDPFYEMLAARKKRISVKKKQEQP
UniProt Q5QP82: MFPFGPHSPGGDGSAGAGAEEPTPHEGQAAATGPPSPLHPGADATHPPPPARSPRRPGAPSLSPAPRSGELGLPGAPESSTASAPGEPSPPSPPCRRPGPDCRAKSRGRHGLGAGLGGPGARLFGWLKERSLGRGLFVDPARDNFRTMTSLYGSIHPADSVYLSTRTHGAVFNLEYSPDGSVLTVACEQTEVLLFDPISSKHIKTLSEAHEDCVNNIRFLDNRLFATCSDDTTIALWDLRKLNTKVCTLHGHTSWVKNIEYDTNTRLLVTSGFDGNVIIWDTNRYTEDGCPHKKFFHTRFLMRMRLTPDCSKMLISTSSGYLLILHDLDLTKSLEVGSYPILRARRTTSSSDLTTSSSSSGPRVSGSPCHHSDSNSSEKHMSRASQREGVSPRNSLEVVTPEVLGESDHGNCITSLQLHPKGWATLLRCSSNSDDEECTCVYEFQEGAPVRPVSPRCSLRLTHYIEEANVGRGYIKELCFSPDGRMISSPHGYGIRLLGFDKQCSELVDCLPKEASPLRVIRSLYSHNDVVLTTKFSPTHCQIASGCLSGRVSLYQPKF
UniProt Q9BQ39: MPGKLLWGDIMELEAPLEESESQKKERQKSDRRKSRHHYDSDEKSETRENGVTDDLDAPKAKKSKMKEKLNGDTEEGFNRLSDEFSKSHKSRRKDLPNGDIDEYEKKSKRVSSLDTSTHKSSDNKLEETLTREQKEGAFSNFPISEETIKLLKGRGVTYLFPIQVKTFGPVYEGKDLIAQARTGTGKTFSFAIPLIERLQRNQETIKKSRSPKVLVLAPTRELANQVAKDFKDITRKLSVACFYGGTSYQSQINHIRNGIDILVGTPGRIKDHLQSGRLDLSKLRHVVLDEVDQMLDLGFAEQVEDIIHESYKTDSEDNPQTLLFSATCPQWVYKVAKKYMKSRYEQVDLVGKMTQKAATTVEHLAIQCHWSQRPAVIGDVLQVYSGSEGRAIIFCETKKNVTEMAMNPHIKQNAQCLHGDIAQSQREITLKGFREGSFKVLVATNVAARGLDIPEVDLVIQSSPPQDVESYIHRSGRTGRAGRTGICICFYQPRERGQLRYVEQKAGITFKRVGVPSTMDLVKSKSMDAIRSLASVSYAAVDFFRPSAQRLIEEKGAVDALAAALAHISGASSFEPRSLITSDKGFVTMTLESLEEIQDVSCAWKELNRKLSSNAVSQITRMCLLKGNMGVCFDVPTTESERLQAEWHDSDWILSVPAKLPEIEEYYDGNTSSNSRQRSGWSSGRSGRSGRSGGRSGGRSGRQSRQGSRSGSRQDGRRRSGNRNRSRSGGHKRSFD
UniProt Q9NQI0, whole entry, looked up: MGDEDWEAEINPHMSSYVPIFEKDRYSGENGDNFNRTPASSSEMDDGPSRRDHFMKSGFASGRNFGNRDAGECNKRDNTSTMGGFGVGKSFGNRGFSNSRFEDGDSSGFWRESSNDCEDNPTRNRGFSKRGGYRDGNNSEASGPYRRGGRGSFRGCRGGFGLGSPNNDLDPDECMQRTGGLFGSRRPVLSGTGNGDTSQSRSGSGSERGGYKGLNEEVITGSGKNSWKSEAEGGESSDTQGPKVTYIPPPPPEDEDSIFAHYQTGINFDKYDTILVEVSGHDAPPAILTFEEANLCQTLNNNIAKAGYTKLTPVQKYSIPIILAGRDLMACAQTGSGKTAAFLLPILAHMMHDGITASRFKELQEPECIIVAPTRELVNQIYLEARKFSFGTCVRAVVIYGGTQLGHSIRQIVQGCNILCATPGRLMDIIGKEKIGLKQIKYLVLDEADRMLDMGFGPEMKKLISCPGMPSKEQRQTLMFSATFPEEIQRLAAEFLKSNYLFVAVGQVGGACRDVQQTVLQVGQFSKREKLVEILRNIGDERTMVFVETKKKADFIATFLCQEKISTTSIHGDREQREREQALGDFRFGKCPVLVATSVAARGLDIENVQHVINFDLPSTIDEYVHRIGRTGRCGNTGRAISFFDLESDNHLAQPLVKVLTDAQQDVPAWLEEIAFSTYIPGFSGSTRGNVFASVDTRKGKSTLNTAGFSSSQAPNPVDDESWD
UniProt Q9UBU7: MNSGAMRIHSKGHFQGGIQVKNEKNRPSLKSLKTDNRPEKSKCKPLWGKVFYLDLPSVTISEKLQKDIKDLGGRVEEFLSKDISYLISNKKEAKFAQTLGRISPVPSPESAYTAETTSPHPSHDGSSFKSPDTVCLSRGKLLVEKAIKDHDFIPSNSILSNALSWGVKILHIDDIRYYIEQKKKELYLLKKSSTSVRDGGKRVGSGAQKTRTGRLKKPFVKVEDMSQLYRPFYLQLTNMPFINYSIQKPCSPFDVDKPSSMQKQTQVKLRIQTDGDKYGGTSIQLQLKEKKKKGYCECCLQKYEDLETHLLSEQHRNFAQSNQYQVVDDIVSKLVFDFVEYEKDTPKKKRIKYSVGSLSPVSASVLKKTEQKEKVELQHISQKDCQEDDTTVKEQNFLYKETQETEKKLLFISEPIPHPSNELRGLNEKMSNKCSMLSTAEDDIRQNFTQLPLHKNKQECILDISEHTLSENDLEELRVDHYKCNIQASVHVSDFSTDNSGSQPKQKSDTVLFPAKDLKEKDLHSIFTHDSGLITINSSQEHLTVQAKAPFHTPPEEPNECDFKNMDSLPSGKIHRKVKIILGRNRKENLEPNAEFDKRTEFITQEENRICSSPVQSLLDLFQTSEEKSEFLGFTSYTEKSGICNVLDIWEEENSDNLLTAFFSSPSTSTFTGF
UniProt P35638, whole entry, looked up: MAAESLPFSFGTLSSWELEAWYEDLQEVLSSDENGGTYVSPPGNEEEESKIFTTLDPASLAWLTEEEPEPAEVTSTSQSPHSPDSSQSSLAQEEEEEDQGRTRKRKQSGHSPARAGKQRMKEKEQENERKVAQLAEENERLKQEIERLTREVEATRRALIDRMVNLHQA

[2] = compound: Cc1nc(Nc2n[nH]c3c2CN(C(=O)N[C@H](CN(C)C)c2ccccc2)C3(C)C)c2sccc2n1
How it was run: as §1

[3] = compound: Cc1nc(Nc2ncc(C(=O)Nc3c(C)cccc3Cl)s2)cc(N2CCN(CCO)CC2)n1 [dasatinib]
How it was run: as §1

[4] = compound: Cc1ncc(-c2ccnc(Nc3ccc(S(C)(=O)=O)cc3)n2)n1C(C)C
How it was run: as §1

[5] = compound: Cn1cc(-c2ccc3c(c2)CCN3C(=O)Cc2cccc(C(F)(F)F)c2)c2c(N)ncnc21
How it was run: as §1

[6] = compound: Cn1cc(CNCC2CCN(c3ncc(C(=O)NO)cn3)CC2)c2ccccc21 [quisinostat]
How it was run: as §1

[7] = compound: Cn1cncc1[C@@](N)(c1ccc(Cl)cc1)c1ccc2c(c1)c(-c1cccc(Cl)c1)cc(=O)n2C [tipifarnib]
How it was run: as §1

[8] = compound: NC(=O)Nc1cc(-c2cccc(F)c2)sc1C(=O)N[C@H]1CCCNC1
How it was run: as §1

[9] = compound: NC(=O)c1cnc(N[C@@H]2CCCC[C@@H]2N)nc1Nc1cccc(-n2nccn2)c1
How it was run: as §1

[10] = compound: NC1(c2ccc(-c3nc4ccn5c(=O)[nH]nc5c4cc3-c3ccccc3)cc2)CCC1
How it was run: as §1

Measured: log2 fold change

DDX6 (UniProt P26196)
inactive: [1] -0.024 | [2] 0.005 | [3] 0 | [4] 0.015 | [5] -0.008 | [6] 0.009 | [7] 0.018 | [8] 0.02 | [9] -0.007 | [10] -0.001

DDI2 isoform 3 (UniProt Q5TDH0)
inactive: [1] -0.005 | [2] 0.012 | [3] 0.004 | [4] 0.026 | [5] -0.038 | [6] 0.013 | [7] -0.033 | [8] -0.005 | [9] 0 | [10] 0.008

DDX21 (UniProt Q9NR30)
inactive: [1] 0.001 | [2] -0.007 | [3] -0.014 | [4] 0.003 | [5] 0 | [6] -0.005 | [7] 0.013 | [8] 0.024 | [9] -0.006 | [10] -0.022

DCAF1 (UniProt Q9Y4B6)
inactive: [1] -0.001 | [2] 0.006 | [3] -0.018 | [4] -0.031 | [5] -0.019 | [6] -0.022 | [7] 0.007 | [8] 0.025 | [9] 0.023 | [10] 0

CYREN isoform 4 (UniProt Q9BWK5)
inactive: [1] 0.197 | [2] -0.11 | [3] 0.082 | [4] 0.105 | [5] -0.051 | [6] -0.058 | [7] -0.288 | [8] 0.007 | [10] -0.047

DBR1 (UniProt Q9UK59)
inactive: [1] -0.016 | [2] 0.028 | [3] -0.017 | [4] -0.003 | [5] -0.007 | [6] -0.011 | [7] 0.002 | [8] 0.011 | [9] 0.009 | [10] 0.023

DENND5B isoform 2 (UniProt Q6ZUT9)
inactive: [1] -0.142 | [2] 0.069 | [3] -0.026 | [4] -0.063 | [5] -0.057 | [7] -0.092 | [10] -0.107

DCAF12 (UniProt Q5T6F0)
inactive: [1] -0.07 | [2] 0.108 | [3] -0.057 | [4] -0.047 | [5] 0.061 | [6] -0.146 | [7] 0.209 | [8] 0.06 | [10] -0.032

DDX39B isoform 2 (UniProt Q13838)
inactive: [1] 0.015 | [2] -0.01 | [3] -0.001 | [4] -0.007 | [5] 0.001 | [6] 0.034 | [7] -0.006 | [8] 0.004 | [9] 0.003 | [10] 0.01

2 records drawn at random from the list so far, as already listed:
CYREN isoform 4 (UniProt Q9BWK5)
inactive: [1] 0.197 | [2] -0.11 | [3] 0.082 | [4] 0.105 | [5] -0.051 | [6] -0.058 | [7] -0.288 | [8] 0.007 | [10] -0.047

DDI2 isoform 3 (UniProt Q5TDH0)
inactive: [1] -0.005 | [2] 0.012 | [3] 0.004 | [4] 0.026 | [5] -0.038 | [6] 0.013 | [7] -0.033 | [8] -0.005 | [9] 0 | [10] 0.008

Going on with the list:

DDOST (UniProt P39656)
inactive: [1] -0.036 | [2] 0.014 | [3] -0.013 | [4] -0.031 | [5] -0.001 | [6] -0.07 | [7] -0.079 | [8] -0.01 | [9] 0.019 | [10] -0.041

DCTN5 (UniProt Q9BTE1)
inactive: [1] -0.002 | [2] -0.065 | [3] 0.083 | [4] 0.037 | [5] 0.002 | [6] 0.019 | [7] -0.026 | [8] 0.035 | [9] 0.002 | [10] -0.001

DDX39A (UniProt O00148)
inactive: [1] -0.002 | [2] 0.02 | [3] 0.001 | [4] 0.007 | [5] 0.06 | [6] -0.018 | [7] -0.053 | [8] 0.075 | [9] 0.036 | [10] -0.013

CYTH2 (UniProt Q99418)
inactive: [1] 0.01 | [2] -0.112 | [3] -0.009 | [4] 0.001 | [5] -0.018 | [7] 0.018 | [9] 0.015 | [10] -0.005

DDX1 (UniProt Q92499)
inactive: [1] 0.006 | [2] -0.011 | [3] -0.019 | [4] 0 | [5] 0.018 | [6] -0.022 | [7] 0.004 | [8] -0.023 | [9] 0.015 | [10] 0.002

CYP2R1 (UniProt Q6VVX0)
inactive: [1] -0.086 | [2] 0.038 | [3] 0.047 | [4] 0.036 | [5] 0.011 | [7] -0.037 | [9] -0.042 | [10] 0.063

DDX28 (UniProt Q9NUL7)
inactive: [1] 0.037 | [2] 0.077 | [3] -0.001 | [4] -0.029 | [5] 0.099 | [6] 0.009 | [7] -0.036 | [8] -0.017 | [10] 0.167

DCAF10 (UniProt Q5QP82)
inactive: [1] -0.011 | [2] 0.076 | [3] -0.07 | [4] 0.019 | [5] 0.055 | [6] 0.04 | [7] 0.04 | [8] 0.044 | [10] 0.063

DDX50 (UniProt Q9BQ39)
inactive: [1] -0.043 | [2] -0.015 | [3] 0.025 | [4] 0.043 | [5] 0.039 | [6] -0.027 | [7] 0.035 | [8] 0.063 | [9] 0.003 | [10] -0.004

DDX4 (UniProt Q9NQI0)
inactive: [1] -0.108 | [2] 0.043 | [3] 0.014 | [4] -0.085 | [5] 0.076 | [7] 0.028 | [9] 0.062 | [10] 0.059

DBF4 (UniProt Q9UBU7)
inactive: [1] 0.05 | [2] 0 | [3] 0.091 | [4] 0.17 | [5] -0.021 | [6] 0.038 | [7] -0.146 | [8] 0.043 | [10] 0.07

DDIT3 isoform 2 (UniProt P35638)
inactive: [1] -0.007 | [2] 0.14 | [4] -0.031 | [6] -0.164 | [7] -0.02 | [8] -0.026

DDX23 (UniProt Q9BUQ8)
inactive: [1] -0.013 | [2] 0.016 | [3] -0.012 | [4] 0.004 | [5] -0.01 | [6] 0.021 | [7] -0.02 | [8] 0.021 | [9] -0.009 | [10] -0.025

From the supplement of paper PMC10849652
